Measured values: PubChem BioAssay AID540276 (National Center for Advancing Translational Sciences (NCATS), 2011)
In all, about 300,000 compounds went through this assay and about 5,400 (1.8%) were called active. The inconclusive results got no clear call from the source; some entries with a clear call stand among them for comparison. The call rests on the fitted dose curve; tested in HEK293 cells. Where the call is inconclusive, the potency comes from a doubtful curve fit.
On the % scale 0 is the no-effect control and ±100 the full control effect; potency means the concentration at half of the fitted maximal effect.

Test: qHTS for inhibitors of binding or entry into cells for Marburg Virus
Settings: Marburg virus pseudotyped entry inhibition, cell reporter; activity change, negative = inhibition: at 37.8 µM (top of the series) unless noted
In the case of `CCOC(=O)c1c(C)[nH]c(C(=O)CSc2ccccc2)c1C`, the Potency is reported as inconclusive: 12.6 µM [inhibitor, partial curve, poor fit].
In the case of `COc1cc(/C=C(/C#N)c2nc3ccccc3[nH]2)ccc1OCC(=O)Nc1ccccc1C(C)C`, the “activity change, negative = inhibition” value is reported as inactive: -2.22%.
For `CC(C)CCN=CC1=C(O)CC(c2ccccc2)CC1=O` (configuration not stated), the “activity change, negative = inhibition” value was inactive: -2.01% [at 46.1 µM].
For `Cc1ccc2[nH]c(=O)c(CN(CCCN(C)C)C(=O)Nc3ccc(Cl)cc3)cc2c1`, the Potency was inconclusive: 16.4 µM [inhibitor, single point].
With `Cn1c(=O)c2cc(S(=O)(=O)NCCC(=O)N3CC=C(c4ccccc4)CC3)ccc2n(C)c1=O` the Potency was inconclusive: 1.46 µM [inhibitor, full curve, poor fit].
In the case of `CCCCCn1c(CCCNC(=O)c2ccccc2OC)nc2ccccc21`, the Potency is reported as inconclusive: 35.5 µM [inhibitor, single point].
In the case of `CC(=O)N1N=C(c2cccc([N+](=O)[O-])c2)OC1c1cccc(Br)c1` (configuration not stated), the “activity change, negative = inhibition” value is reported as inactive: -20.2% [at 46.1 µM].
In the case of `COc1ccc(-c2nn(-c3ccccc3)cc2/C=N/NS(=O)(=O)c2ccccc2)cc1`, the Potency is reported as inconclusive: 35.5 µM [inhibitor, single point].
In the case of `C/C(=N\NC(=O)c1ccc(Cl)cc1)c1ccc(N2CCOCC2)cc1`, the “activity change, negative = inhibition” value is reported as inactive: 1.81%.
In the case of `COc1cc(Cl)c(C)cc1NC(=O)CSc1cc(Cl)ccc1Cl`, the “activity change, negative = inhibition” value is reported as inactive: -15%.
In the case of `O=C(Nc1nc2ccccc2[nH]1)c1cccc(F)c1`, the Potency is reported as inconclusive: 11.2 µM [inhibitor, single point].
In the case of `O=C(O)C1OC(Oc2c(-c3ccc(O)c(O)c3)oc3cc(O)cc(O)c3c2=O)C(O)C(O)C1O` (configuration not stated), the Potency is reported as inconclusive: 18.4 µM [inhibitor, single point].
In the case of `Cc1[nH]n(-c2ccccc2)c(=O)c1/C=N/c1nn[nH]n1`, the “activity change, negative = inhibition” value is reported as inactive: -4.93% [at 46.1 µM].
For `CC1=C(C(N)=O)C(c2ccc(C)cc2)n2nc(SCc3ccccc3)nc2N1` (configuration not stated), the Potency was inconclusive: 22.4 µM [activator, single point].
For `CC(C)=CCN1CCN(Cc2cccn2-c2nccs2)CC1CCO` (configuration not stated), the Potency was inconclusive: 1.58 µM [inhibitor, partial curve, poor fit].
In the case of `COCCCNC(=O)NC(=O)c1ccccc1`, the Potency is reported as inconclusive: 5.62 µM [activator, single point].
For `NS(=O)(=O)c1ccc(CCNC(=O)c2ccc3c(c2)OCCO3)cc1`, the Potency was inconclusive: 0.562 µM [activator, full curve, poor fit].
In the case of `O=C(COC(=O)c1c2c(nc3ccccc13)/C(=C\c1cccs1)CCC2)Nc1ccccc1`, the Potency is reported as inconclusive: 12.6 µM [inhibitor, partial curve].
With `Cc1ccccc1NC(=O)CSc1ccc(-c2ccccn2)nn1` the Potency was inconclusive: 5.62 µM [activator, single point].
In the case of `Cc1cc(-c2cccc([N+](=O)[O-])c2)nc2ccc3ccccc3c12`, the Potency is reported as inconclusive: 29.1 µM [inhibitor, single point].
For `O=C(Nc1ccccc1)c1sccc1Oc1ccc([N+](=O)[O-])cc1F`, the Potency was inconclusive: 17.8 µM [inhibitor, single point].
With `O=C(NCCCNC(=O)c1cnccn1)c1cccc(Cl)c1` the “activity change, negative = inhibition” value was inactive: 18.1% [at 46.1 µM].
In the case of `O=[N+]([O-])c1ccccc1/C=N/Nc1nnc(-c2ccccc2)c(-c2ccccc2)n1`, the Potency is reported as inconclusive: 6.31 µM [inhibitor, single point].
With `Cc1cccc(-n2c(C)cc(/C=N\NC(=O)c3cccs3)c2C)c1` the Potency was inconclusive: 3.98 µM [inhibitor, full curve, poor fit].
In the case of `COc1ccc(/C=C2\SC(=O)NC2=S)cc1OC`, the Potency is reported as inconclusive: 7.94 µM [inhibitor, partial curve, poor fit].
In the case of `Cc1ccc(S(=O)(=O)Nc2ccc(Nc3ccccc3)cc2)cc1`, the Potency is reported as inconclusive: 10 µM [inhibitor, partial curve, poor fit].
In the case of `CCOc1ccc2nc(NC(=O)c3ccco3)sc2c1`, the Potency is reported as inconclusive: 1.58 µM [inhibitor, partial curve, poor fit].
With `CCn1c(/C=N/NC(=O)c2ccc(OC)cc2)nc2ccccc21` the Potency was inconclusive: 17.8 µM [inhibitor, single point].
For `O=C(NC(=S)Nc1ccccc1N1CCCCC1)c1ccc(F)cc1Cl`, the Potency was inconclusive: 35.5 µM [inhibitor, single point].
In the case of `CC(C)(C)c1csc(NNC(=O)c2ccc(Cl)cc2)n1`, the Potency is reported as inconclusive: 35.5 µM [inhibitor, single point].
For `COc1ccc(OCc2nc3ccccc3n2Cc2ccc(C(C)(C)C)cc2)cc1`, the Potency was inconclusive: 35.5 µM [inhibitor, single point].
For `CCC(C)Sc1nc2c(c(=O)[nH]c(=O)n2C)n1Cc1ccc(Cl)cc1` (configuration not stated), the Potency was inconclusive: 35.5 µM [inhibitor, single point].
In the case of `O=C1CCC(C(=O)N2CCN(c3cnccn3)CC2)CN1CCc1ccc(Cl)cc1` (configuration not stated), the “activity change, negative = inhibition” value is reported as inactive: 9.36%.
In the case of `Cc1ccc(-c2csc(N3CCC(NS(=O)(=O)c4ccc5c(c4)OCCO5)CC3)n2)cc1`, the Potency is reported as inconclusive: 7.94 µM [inhibitor, partial curve, poor fit].
With `Cc1ccc(-n2ncc3c(=O)n(CC(=O)OCc4ccccc4)cnc32)cc1` the “activity change, negative = inhibition” value was inactive: -4.33%.
With `S=C(Nc1ccccc1)Nc1nc2ccccc2n1CCOc1ccccc1` the Potency was inconclusive: 29.1 µM [inhibitor, single point].
For `CCC(C)c1ccc(Nc2ncccc2C#N)cc1` (configuration not stated), the Potency was inconclusive: 0.891 µM [activator, single point].
In the case of `Cc1ccc(C)n1-c1cc([N+](=O)[O-])ccc1-n1ccnc1`, the Potency is reported as inconclusive: 14.1 µM [inhibitor, partial curve, poor fit].
In the case of `N/C(=N\OC(=O)COc1ccc(Br)cc1Cl)c1ccncc1`, the Potency is reported as inconclusive: 0.0891 µM [activator, partial curve, poor fit].
For `O=C(NCCCn1ccnc1)c1cc(-c2ccncc2)nc2ccccc12`, the Potency was inconclusive: 7.94 µM [inhibitor, partial curve, poor fit].
For `COc1ccc(NC(=O)c2ccccc2NC(=O)c2cccs2)cc1`, the “activity change, negative = inhibition” value was inactive: 22.2% [at 46.1 µM].
For `CCOC(=O)[C@H]1Cc2c([nH]c3ccccc23)[C@H](C)N1`, the Potency was inconclusive: 6.51 µM [inhibitor, single point].
